Test results: PMC3630842
Like-named read-outs stand apart in the source and are kept apart here. These are yes or no findings as the source states them, for the method shown. In cells and extracts the contact can be indirect. Some binding calls cover weakened binding; strength is not graded here.

Sequences of proteins named here, by UniProt entry; tags and fusion partners are left off. A change or cut given only in a name is not applied to a line headed by its entry. A line that says so, or that is headed by a name, gives the form on record, which may keep a tag or linker. Residues count along the entry.
wild-type IRBP with a C-terminally fused FLAG or HA epitope (P10745, residues 18-1247): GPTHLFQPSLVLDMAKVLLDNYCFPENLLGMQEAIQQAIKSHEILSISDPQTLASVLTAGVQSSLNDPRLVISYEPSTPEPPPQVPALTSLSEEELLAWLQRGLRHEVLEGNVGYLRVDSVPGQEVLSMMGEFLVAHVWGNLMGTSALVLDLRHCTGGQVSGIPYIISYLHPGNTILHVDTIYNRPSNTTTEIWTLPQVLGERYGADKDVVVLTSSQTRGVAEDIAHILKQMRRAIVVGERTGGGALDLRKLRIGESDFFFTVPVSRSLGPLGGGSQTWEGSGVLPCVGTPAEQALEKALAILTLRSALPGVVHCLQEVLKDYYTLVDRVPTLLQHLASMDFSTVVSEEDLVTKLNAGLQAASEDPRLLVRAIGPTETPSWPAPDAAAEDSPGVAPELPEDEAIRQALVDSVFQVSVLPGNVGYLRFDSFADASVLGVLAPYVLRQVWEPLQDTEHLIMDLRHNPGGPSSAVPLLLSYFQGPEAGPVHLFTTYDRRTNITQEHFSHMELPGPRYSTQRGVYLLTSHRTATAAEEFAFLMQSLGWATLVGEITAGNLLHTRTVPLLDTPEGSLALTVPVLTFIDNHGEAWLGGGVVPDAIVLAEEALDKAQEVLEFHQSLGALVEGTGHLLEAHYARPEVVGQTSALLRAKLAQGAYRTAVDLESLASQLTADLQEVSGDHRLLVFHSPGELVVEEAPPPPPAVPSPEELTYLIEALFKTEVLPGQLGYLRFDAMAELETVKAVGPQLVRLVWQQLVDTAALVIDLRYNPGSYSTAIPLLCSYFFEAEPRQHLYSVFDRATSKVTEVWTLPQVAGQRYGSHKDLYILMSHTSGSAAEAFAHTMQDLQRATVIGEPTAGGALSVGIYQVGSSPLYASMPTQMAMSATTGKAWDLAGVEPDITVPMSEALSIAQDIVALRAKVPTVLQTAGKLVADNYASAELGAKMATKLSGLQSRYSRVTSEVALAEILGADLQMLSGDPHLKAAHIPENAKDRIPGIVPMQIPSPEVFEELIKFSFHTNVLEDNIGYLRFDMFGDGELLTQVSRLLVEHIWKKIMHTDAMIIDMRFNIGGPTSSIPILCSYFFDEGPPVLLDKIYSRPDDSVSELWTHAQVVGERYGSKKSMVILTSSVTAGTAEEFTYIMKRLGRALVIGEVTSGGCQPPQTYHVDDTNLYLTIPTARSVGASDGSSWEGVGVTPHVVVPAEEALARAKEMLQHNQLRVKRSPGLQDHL
D1080N interphotoreceptor retinoid-binding protein (D1080N IRBP) (P10745, form named): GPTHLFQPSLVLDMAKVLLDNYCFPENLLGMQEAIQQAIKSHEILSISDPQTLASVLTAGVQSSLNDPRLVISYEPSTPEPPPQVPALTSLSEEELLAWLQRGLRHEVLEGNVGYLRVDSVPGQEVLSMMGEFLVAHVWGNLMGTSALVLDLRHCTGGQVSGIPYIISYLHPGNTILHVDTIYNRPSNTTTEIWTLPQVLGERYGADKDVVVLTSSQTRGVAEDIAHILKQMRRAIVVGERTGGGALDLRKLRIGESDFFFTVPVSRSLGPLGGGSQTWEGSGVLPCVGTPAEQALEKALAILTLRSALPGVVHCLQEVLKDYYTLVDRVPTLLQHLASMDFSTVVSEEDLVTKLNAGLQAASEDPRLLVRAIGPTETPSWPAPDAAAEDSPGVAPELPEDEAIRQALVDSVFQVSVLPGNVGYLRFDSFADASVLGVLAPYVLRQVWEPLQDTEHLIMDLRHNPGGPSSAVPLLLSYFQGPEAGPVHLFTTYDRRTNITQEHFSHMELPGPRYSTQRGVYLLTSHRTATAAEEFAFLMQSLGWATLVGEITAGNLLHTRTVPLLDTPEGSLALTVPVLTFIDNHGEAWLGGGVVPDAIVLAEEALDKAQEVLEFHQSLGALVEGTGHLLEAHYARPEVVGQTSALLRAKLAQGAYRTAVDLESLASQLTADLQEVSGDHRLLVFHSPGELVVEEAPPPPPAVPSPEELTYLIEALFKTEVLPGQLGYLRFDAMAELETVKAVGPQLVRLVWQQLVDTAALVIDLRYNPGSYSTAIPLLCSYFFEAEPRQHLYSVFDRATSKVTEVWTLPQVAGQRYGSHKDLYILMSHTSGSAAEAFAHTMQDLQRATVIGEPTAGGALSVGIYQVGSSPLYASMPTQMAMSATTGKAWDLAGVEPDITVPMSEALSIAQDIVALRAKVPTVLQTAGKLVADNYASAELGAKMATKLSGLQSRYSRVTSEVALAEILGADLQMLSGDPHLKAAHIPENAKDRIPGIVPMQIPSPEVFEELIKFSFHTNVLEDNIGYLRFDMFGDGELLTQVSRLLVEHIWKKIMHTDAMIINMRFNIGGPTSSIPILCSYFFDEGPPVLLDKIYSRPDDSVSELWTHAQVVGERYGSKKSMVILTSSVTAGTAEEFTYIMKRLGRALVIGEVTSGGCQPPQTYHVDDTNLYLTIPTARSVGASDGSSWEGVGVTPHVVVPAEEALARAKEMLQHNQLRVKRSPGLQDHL
UniProt P11021, residues 19-654: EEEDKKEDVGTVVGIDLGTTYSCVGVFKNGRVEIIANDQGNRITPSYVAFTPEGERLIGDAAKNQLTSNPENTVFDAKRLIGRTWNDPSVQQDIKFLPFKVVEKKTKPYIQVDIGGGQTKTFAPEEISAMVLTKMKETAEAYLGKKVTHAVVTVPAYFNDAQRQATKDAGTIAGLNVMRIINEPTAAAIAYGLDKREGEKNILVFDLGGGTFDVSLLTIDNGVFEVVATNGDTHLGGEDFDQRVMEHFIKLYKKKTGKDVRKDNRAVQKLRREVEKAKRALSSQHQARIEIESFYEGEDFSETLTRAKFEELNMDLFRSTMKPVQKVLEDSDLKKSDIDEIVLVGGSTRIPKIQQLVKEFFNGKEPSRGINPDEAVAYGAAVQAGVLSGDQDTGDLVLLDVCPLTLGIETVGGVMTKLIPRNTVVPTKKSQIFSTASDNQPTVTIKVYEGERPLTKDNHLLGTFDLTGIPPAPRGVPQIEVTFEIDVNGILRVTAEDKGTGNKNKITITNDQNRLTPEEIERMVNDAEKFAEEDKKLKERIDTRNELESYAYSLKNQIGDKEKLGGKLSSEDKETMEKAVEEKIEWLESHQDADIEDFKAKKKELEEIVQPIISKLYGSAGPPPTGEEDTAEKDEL

Columns and labels:
[1] = target: D1080N interphotoreceptor retinoid-binding protein (D1080N IRBP) (human) (UniProt P10745); test: co-IP; 293T-LC cells expressing WT or D1080N IRBP; lysis in 50 mM Tris-HCl pH 7.4, 150 mM NaCl, 1 mM EDTA, 0.5% Nonidet P-40; immunoprecipitation with an affinity-purified IRBP antibody (Dynabeads kit); precipitates probed with antibodies against PDI/PDIA2 or BiP
[2] = target: wild-type IRBP with a C-terminally fused FLAG or HA epitope (human) (UniProt P10745); test: co-IP; 293T-LC cells co-expressing WT and D1080N IRBPs tagged with FLAG or HA; immunoprecipitation with a FLAG antibody (anti-FLAG M2 affinity gel), precipitates probed with an HA antibody
[3] = target: D1080N IRBP with a C-terminally fused FLAG or HA epitope (human) (UniProt P10745); test: as above
[4] = target: D1080N interphotoreceptor retinoid-binding protein (D1080N IRBP) (human) (UniProt P10745); test: co-IP; 293T-LC cells expressing WT or D1080N IRBP; lysis in 50 mM Tris-HCl pH 7.4, 150 mM NaCl, 1 mM EDTA, 0.5% Nonidet P-40; immunoprecipitation with an affinity-purified IRBP antibody (Dynabeads kit); precipitates probed with antibodies against PDI/PDIA2 or BiP; remark: listed apart in the source

Question: How did the binding [1] turn out when “binding immunoglobulin protein (BiP) (from UniProt P11021 19-654)” was run?
Answer: The binding was “binds”.

Question: Which binding [2] does the source give for “D1080N IRBP with a C-terminally fused FLAG or HA epitope (from UniProt P10745 18-1247)” here?
Answer: Its binding is “binds”.

Question: What about the binding [3] of the same molecule?
Answer: Its binding is “binds”.

Question: For “wild-type IRBP with a C-terminally fused FLAG or HA epitope (from UniProt P10745 18-1247)”, which binding [2] is on record?
Answer: The binding was “binds”.

B1: protein disulfide isomerase A2 (PDIA2) (protein, UniProt D3Z6P0 21-527)
chain: QGEEPGGPSEVLPEEPTGEEVPKEDGILVLNHRTLSLALQEHSALMVEFYAPWCGHCKELAPEYSKAAALLAAESAVVTLAKVDGPAEPELTKEFEVVGYPTLKFFQNGNRTNPEEYAGPKTAEGIAEWLRRRVGPSATHLEDEEGVQALMAKWDMVVIGFFQDLQGKDMATFLALAKDALDMTFGFTDQPQLFEKFGLTKDTVVLFKKFDEGRADFPVDKETGLDLGDLSRFLVIHSMHLVTEFNSQTSPKIFAAKILNHLLLFVNQTLAQHRELLTDFREAAPPFRGQVLFVMVDVAADNSHVLNYFGLKAEEAPTLRLINVETTKKYAPTGVIAITAASVAAFCQAVLHGEIKHYLLSQEIPPDWDQGPVKTLVSKNFEQVAFDETKNVFVKFYAPWCSHCKEMAPAWEALAEKYKDREDIVIAELDATANELEAFSVLGYPTLKFFPAGPDRKVIDYKSTRDLETFSKFLDSGGHLPKEEPKEPAASAPEAQANSTLGPKEEL
Question: How did the binding [4] turn out when B1 was run?
Answer: Its binding is “binds”.
